Laboratory results reported in patent US20160200815A1.
No constants are given. Whether binding was seen depends on the method and setting. Some binding calls cover weakened binding; strength is not graded here.

By UniProt entry, the sequences of proteins in these tests, tags left out. Where a name states a change or a piece, a line headed by the entry shows the natural chain unless it says otherwise. Residues count along the entry.
UniProt Q8TDQ0: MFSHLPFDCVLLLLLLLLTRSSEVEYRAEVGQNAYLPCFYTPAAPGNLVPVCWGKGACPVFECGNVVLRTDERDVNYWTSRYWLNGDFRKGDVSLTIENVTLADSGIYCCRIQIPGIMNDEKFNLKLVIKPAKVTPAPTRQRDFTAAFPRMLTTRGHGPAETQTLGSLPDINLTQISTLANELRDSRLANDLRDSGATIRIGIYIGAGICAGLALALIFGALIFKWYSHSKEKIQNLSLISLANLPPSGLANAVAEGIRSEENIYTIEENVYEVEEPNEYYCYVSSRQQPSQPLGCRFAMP
UniProt Q8N423, residues 22-460: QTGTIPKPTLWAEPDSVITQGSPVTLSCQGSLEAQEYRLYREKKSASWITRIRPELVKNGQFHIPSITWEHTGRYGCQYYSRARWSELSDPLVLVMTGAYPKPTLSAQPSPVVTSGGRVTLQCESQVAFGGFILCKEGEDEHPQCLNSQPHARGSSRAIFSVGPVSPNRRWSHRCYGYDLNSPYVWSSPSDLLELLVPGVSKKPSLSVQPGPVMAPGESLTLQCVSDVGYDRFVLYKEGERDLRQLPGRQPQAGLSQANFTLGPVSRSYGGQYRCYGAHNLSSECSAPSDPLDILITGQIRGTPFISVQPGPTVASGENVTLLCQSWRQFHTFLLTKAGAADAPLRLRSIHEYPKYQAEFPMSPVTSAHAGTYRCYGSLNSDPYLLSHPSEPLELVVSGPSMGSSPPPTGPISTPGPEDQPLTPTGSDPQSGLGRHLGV

Columns and labels:
[1] = molecular target: HIS-Tagged human TIM-3 ECD (human) (UniProt Q8TDQ0); experiment: Octet BLI (FIG. 6A)
[2] = molecular target: HIS-Tagged human TIM-3 ECD (human) (UniProt Q8TDQ0); experiment: Octet (BLI): hTIM-3-HIS loaded on Ni-NTA sensors, mIgG1 control at 150 nM, then human LILRB2 ECD-Fc in solution
[3] = molecular target: Human LILRB2-Fc Chimera (R&D Systems, 2078-T4) (human) (UniProt Q8N423); experiment: Octet (BLI): human LILRB2 ECD-Fc loaded on anti-human Fc capture sensors, mIgG1 control at 150 nM, then human TIM-3-ECD-HIS in solution

| binding [1] | binding [2] | binding [3] | Substance |
| --- | --- | --- | --- |
| binds | binds |  | Human LILRB2-Fc Chimera (R&D Systems, 2078-T4) (from UniProt Q8N423 22-460) (Fc fusion) |
|  |  | binds | HIS-Tagged human TIM-3 ECD (from UniProt Q8TDQ0 22-202) (receptor) |
